Data on 6 molecules can be found in PMC9417995.

Sequences of proteins named here, by UniProt entry; tags and fusion partners are left off.
UniProt Q9HAU4: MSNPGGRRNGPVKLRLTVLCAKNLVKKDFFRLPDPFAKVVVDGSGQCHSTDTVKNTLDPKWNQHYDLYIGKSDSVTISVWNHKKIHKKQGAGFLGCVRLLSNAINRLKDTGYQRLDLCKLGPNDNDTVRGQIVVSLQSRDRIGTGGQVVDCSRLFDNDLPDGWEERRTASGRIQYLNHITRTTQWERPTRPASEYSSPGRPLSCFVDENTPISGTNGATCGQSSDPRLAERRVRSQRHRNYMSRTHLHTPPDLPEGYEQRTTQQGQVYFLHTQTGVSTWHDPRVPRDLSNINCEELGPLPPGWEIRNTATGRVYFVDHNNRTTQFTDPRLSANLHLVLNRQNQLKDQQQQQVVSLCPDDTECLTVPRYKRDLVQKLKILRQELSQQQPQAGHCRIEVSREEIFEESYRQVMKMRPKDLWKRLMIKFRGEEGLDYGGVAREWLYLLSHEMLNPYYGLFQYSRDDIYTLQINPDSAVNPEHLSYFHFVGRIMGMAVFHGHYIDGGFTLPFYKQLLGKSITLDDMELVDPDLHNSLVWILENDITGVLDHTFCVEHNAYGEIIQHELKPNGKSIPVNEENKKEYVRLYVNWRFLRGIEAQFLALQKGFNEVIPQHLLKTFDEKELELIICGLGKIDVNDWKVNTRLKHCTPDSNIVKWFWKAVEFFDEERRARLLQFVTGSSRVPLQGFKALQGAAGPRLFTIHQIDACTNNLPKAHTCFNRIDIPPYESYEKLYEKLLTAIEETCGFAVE

For test [1], the target named is HER2 in transiently transfected cells (human) (UniProt P04626). Description: co-IP; transiently transfected HCC1954 cells and HEK293T cells.
For test [2], the target named is HA-HER2-full length (human) (UniProt P04626). The test is described as follows: co-IP; HA-HER2 full length or truncates transfected into HEK293T cells.
The target of test [3] is MYC-HER2 protein, purified (human) (UniProt P04626). Description: pull-down; in vitro binding of purified GST-TRAF4, FLAG-SMURF2 and MYC-HER2 proteins; both purified.
The target is the same in test [4]. The test is described as follows: pull-down; competition: different amounts (0, 1, 2, 3 µg) of pure TRAF4, SMURF2 and HER2 protein combined, HER2 pulled down, immunoblot with TRAF4 or SMURF2 antibodies; both purified. (In western blotting, separated proteins are transferred to a membrane and probed.)
Test [5] has as its target HER2 receptor (HER2/ErbB2), endogenous (human (endogenous in HCC1954)) (UniProt P04626). The test is described as follows: co-IP; separated membrane and cytoplasmic fractions from HCC1954 and BT474 cells.
For test [6] the target is unchanged. Description: co-IP; endogenous proteins, lysates of four HER2-positive breast cancer cell lines (HCC1954 in Fig. 5A).
For test [7], the target named is FLAG-SMURF2 protein, purified (human) (UniProt Q9HAU4). Description: pull-down; in vitro binding of purified GST-TRAF4, FLAG-SMURF2 and MYC-HER2 proteins; both purified.
The target in test [8] is SMURF2 in transfected cells (UniProt Q9HAU4). Description: co-IP; transiently transfected HCC1954 cells and HEK293T cells.

No constants are given. Whether binding was seen depends on the method and setting. For some assays here: In cells and extracts the contact can be indirect. Some results given as binding are weak or reduced against the parent protein; the word gives no strength. For some assays here: Tags and fused reporters may be left off the sequences shown.

In the case of “SMURF2 in transfected cells (from UniProt Q9HAU4 1-748)”, the binding result in test [1] and in test [2] was “binds” each time.
As to “FLAG-SMURF2 protein, purified (from UniProt Q9HAU4 1-748)”, the binding entry in test [3] and in test [4] was “binds” each time.
Take “SMAD specific E3 ubiquitin protein ligase protein 2 (SMURF2), endogenous (from UniProt Q9HAU4 1-748)”: the binding result in test [5] and in test [6] was “binds” each time.

B1: GST-TRAF4 protein, purified (protein, UniProt Q9BUZ4 1-470)
chain: MPGFDYKFLEKPKRRLLCPLCGKPMREPVQVSTCGHRFCDTCLQEFLSEGVFKCPEDQLPLDYAKIYPDPELEVQVLGLPIRCIHSEEGCRWSGPLRHLQGHLNTCSFNVIPCPNRCPMKLSRRDLPAHLQHDCPKRRLKCEFCGCDFSGEAYESHEGMCPQESVYCENKCGARMMRRLLAQHATSECPKRTQPCTYCTKEFVFDTIQSHQYQCPRLPVACPNQCGVGTVAREDLPGHLKDSCNTALVLCPFKDSGCKHRCPKLAMARHVEESVKPHLAMMCALVSRQRQELQELRRELEELSVGSDGVLIWKIGSYGRRLQEAKAKPNLECFSPAFYTHKYGYKLQVSAFLNGNGSGEGTHLSLYIRVLPGAFDNLLEWPFARRVTFSLLDQSDPGLAKPQHVTETFHPDPNWKNFQKPGTWRGSLDESSLGFGYPKFISHQDIRKRNYVRDDAVFIRAAVELPRKILS
Consider B1, for which the binding result in test [7], in test [3] and in test [4] was “binds” in each case.

B2: TRAF4 in transfected cells (protein, UniProt Q9BUZ4 1-470)
chain: B1 chain
B2: the binding result in test [1], in test [8] and in test [2] was “binds” each time.

B3: TNF receptor-associated factor 4 (TRAF4), endogenous (protein, UniProt Q9BUZ4 1-470)
chain: B1 chain
As to B3, the binding result in test [5] and in test [6] was “binds” throughout.
